This passage reports survivor count and T/C results from PubChem BioAssay AID330 (DTP/NCI, 2004).

The test has as its system P388 leukemia ip, CD2F1 mice, survival T/C. The experiment in a line: NCI In Vivo Anticancer Drug Screen. Data for tumor model P388 Leukemia (intraperitoneal) in CD2F1 (CDF1) mice. The settings on record: T/C endpoint: median survival time, higher T/C = longer survival.
Where [1] appears, read: dose: 200.0 mg/kg/injection, schedule: Q01DX005 (ip), vehicle: saline.
The mark [2] stands for this setting: dose: 100.0 mg/kg/injection, schedule: Q01DX009 (ip), vehicle: saline with Tween-80.
Setting [3] is: dose: 200.0 mg/kg/injection, schedule: Q01DX009 (ip), vehicle: saline with Tween-80.
The mark [4] stands for this setting: dose: 100.0 mg/kg/injection, schedule: Q01DX009 (ip), vehicle: Klucel (hydroxypropylcellulose) (HPC).
[5] abbreviates: dose: 200.0 mg/kg/injection, schedule: Q01DX009 (ip), vehicle: Klucel (hydroxypropylcellulose) (HPC).

The list is a part of this screen's results and no random one: it is rich in T/C values a quarter to a half above the control, in often repeated tests (any T/C) and in doses without a T/C. Other doses and runs of a compound stand elsewhere. T/C is the treated group as % of the vehicle group. Some doses have a count of surviving animals in place of a T/C: the source holds a T/C of zero for them, seemingly a mark for toxic or unscored doses. Some survivor counts are full or nearly so, which does not show that the dose was tolerated: survival well below the control is almost never listed, so the zero probably covers shortened survival too. Survivors were counted at the toxicity check, usually on the fifth day, unless a day is given; later deaths do not show. Schedule codes are those of the source, taken here to give the interval after Q, in days (D) or hours (H), and the number of doses after X. Some entries were tested several times; the values are given in rising order. Some molecules as drawn cover several salts, stereoisomers or complexes of the source; a dose is that of the sample tested. For survival time, the PubChem record calls one and a half times the control and up active, and a quarter to a half above the control has no call in these data; cut-offs in other NCI protocols can differ. Some T/C values are followed by the survivors on the day toxicity was checked, most often the fifth; without a count, all were alive then.

Take `Cc1cc(NCCCN(C)C)c2c(ccc3c(NCCCN(C)C)cc(C)nc32)n1`: the survivor count (dose: 48.0 mg/kg/injection, schedule: Q01DX009 (ip), vehicle: saline with Tween-80) is reported as 1 of 6 and the survivor count (dose: 96.0 mg/kg/injection, schedule: Q01DX009 (ip), vehicle: saline with Tween-80) was 0 of 6.

On to `C[N+]1=P(C)(C)N=P(C)(C)[N+](C)=P(C)(C)N=P1(C)C`, for which the survivor count runs as follows: (dose: 100.0 mg/kg/injection, schedule: Q01DX009 (ip), vehicle: saline) 4 of 6; (dose: 200.0 mg/kg/injection, schedule: Q01DX009 (ip), vehicle: saline) 0 of 6.

For `O=C(NC1CCC1)OCc1c(COC(=O)NC2CCC2)c(-c2ccc(Cl)c(Cl)c2)n2c1CCC2`, the survivor count runs as follows: (dose: 1.56 mg/kg/injection, schedule: Q01DX009 (ip), vehicle: distilled water + Tween-80) 6 of 6; (dose: 100.0 mg/kg/injection, schedule: Q01DX009 (ip), vehicle: distilled water + Tween-80) 4 of 6 and 6 of 6; (dose: 200.0 mg/kg/injection, schedule: Q01DX009 (ip), vehicle: distilled water + Tween-80) 1 of 6. For the same compound, the T/C by setting is: (dose: 6.25 mg/kg/injection, schedule: Q01DX009 (ip), vehicle: distilled water + Tween-80, evaluated on day 30) 148 % of control; (dose: 6.25 mg/kg/injection, schedule: Q01DX009 (ip), vehicle: distilled water + Tween-80, evaluated on day 45) 142 % of control; (dose: 12.5 mg/kg/injection, schedule: Q01DX009 (ip), vehicle: distilled water + Tween-80) 147 % of control.

On to `CC1(C)OC(CC(=O)O)C23COC(C(=O)C4(C)C2CCC2(C)C(C5CCOC5)OC(=O)C5OC524)C13` (configuration not stated), for which the survivor count (dose: 8.0 mg/kg/injection, schedule: Q01DX009 (ip), vehicle: saline + alcohol) is given as 4 of 6.

Turning to `FC(F)(F)COP1(OCC(F)(F)F)(OCC(F)(F)F)SC(C(F)(F)F)=C(C(F)(F)F)S1`, where the note is “dose: 200.0 mg/kg/injection, schedule: Q04DX002 (ip), vehicle: saline”, the T/C is 128 % of control [4 of 5 alive]. Moreover, where the note is “dose: 400.0 mg/kg/injection, schedule: Q04DX002 (ip), vehicle: saline”, the survivor count is on record as 5 of 5.

Take `CC(=O)/C(=C\c1ccc(Cl)c(Cl)c1)C(=O)CCN(C)C`: the T/C is 129 % of control (dose: 12.5 mg/kg/injection, schedule: Q01DX005 (ip), vehicle: saline with Tween-80); 128 and 130 % of control (dose: 50.0 mg/kg/injection, schedule: Q01DX005 (ip), vehicle: saline with Tween-80); 133 % of control (dose: 100.0 mg/kg/injection, schedule: Q01DX005 (ip), vehicle: saline, evaluated on day 20); 129 % of control (dose: 100.0 mg/kg/injection, schedule: Q01DX005 (ip), vehicle: saline, evaluated on day 30). The survivor count (dose: 100.0 mg/kg/injection, schedule: Q01DX005 (ip), vehicle: saline with Tween-80) was 0 of 5; the survivor count (dose: 200.0 mg/kg/injection, schedule: Q01DX005 (ip), vehicle: saline with Tween-80) is 0 of 5; the survivor count under setting [1] was 0 of 6 and 1 of 6.

As for `COc1c(Br)cc(Br)cc1/C=C/[N+](=O)[O-]`, the survivor count is 0 of 6 under setting [2] and 0 of 6 under setting [3].

As for `CCCCCCCCCCCCCCCCCSc1c(O)c(O)c2cccnc2c1O` (tested in a mixture with another compound), the survivor count (dose: 240.0 mg/kg/injection, schedule: Q01DX005 (ip), vehicle: Klucel (hydroxypropylcellulose) (HPC)) is 0 of 6.

Turning to `O=C(C/C(=N\C(=S)Nc1cc(C(F)(F)F)ccc1Cl)NO)N1CCCC1`, the T/C was 134 % of control under setting [2] and 128 % of control under setting [3].

For the compound `COc1ccc(N=C([Se])CCC(C)C)cc1`, the survivor count is, setting by setting: (dose: 50.0 mg/kg/injection, schedule: Q01DX009 (ip), vehicle: Klucel (hydroxypropylcellulose) (HPC)) 1 of 6; under setting [4], 0 of 6; under setting [5], 0 of 6.

Regarding `C=Cc1ccccc1` (tested in a mixture with another compound), the survivor count runs as follows: (dose: 50.0 mg/kg/injection, schedule: Q01DX005 (ip), vehicle: saline) 0 of 6; (dose: 100.0 mg/kg/injection, schedule: Q01DX001 (ip), vehicle: Klucel (hydroxypropylcellulose) (HPC)) 0 of 6; (dose: 100.0 mg/kg/injection, schedule: Q01DX005 (ip), vehicle: saline) 0 of 6; (dose: 200.0 mg/kg/injection, schedule: Q01DX001 (ip), vehicle: Klucel (hydroxypropylcellulose) (HPC)) 0 of 6; under setting [1], 0 of 6; (dose: 400.0 mg/kg/injection, schedule: Q01DX001 (ip), vehicle: Klucel (hydroxypropylcellulose) (HPC)) 0 of 6.

For the compound `CC12CC3CC(C1)CC(Br)(C3)C2`, the T/C is, setting by setting: under setting [4], 128 % of control; under setting [5], 128 % of control.

As to `CC(C)(C)c1ccc(N)c(N)c1`, where the note is “dose: 200.0 mg/kg/injection, schedule: Q01DX009 (ip), vehicle: DMSO”, the survivor count is reported as 1 of 6.
